# Laboratory results: patent US20060009506A1, “Drugs for the treatment of neoplastic disorders” (Odyssey Thera, Inc., priority 2004, published 2006)
# pIC50: −log10 of the molar value.
# What was measured:
# Assay type in all cases: cell-based
# PC-3 cells = assay: MTT proliferation assay, prostate adenocarcinoma PC-3; settings: Homo sapiens, Tumor Cell: Prostate (PC-3), 120 hours, concentrations tested in microM
# Text: (§1) We first screened compounds derived from the known pharmacopeia and from a selected natural product collection using two types of assays: (a) measurements of post-translational modifications of proteins; (b) measurements of protein-protein interactions. For the purpose of measuring post-translational modifications of proteins, we used immunofluorescence methods combined with phospho-specific antibodies. For the purpose of quantifying and localizing protein complexes we used fluorescence methods based on protein-fragment complementation assays (PCA). ‘Hits’ from the initial screens were then tested for antiproliferative activity in up to 5 different human tumor cell lines. […] For drugs with antiproliferative activity in PC-3 cells, dose-response curves were generated to determine the EC50 for antiproliferative activity and additional tumor cell lines were tested to determine the breadth of activity. Methods for assay development, validation, screening, and testing of antiproliferative activity are described below.
# (§2) Cells were maintained in various media as follows: A549, LoVo and PC-3 (Ham's F12K medium with 2 mM L-glutamine and 1.5 g/L sodium bicarbonate), MIA PaCa-2 (Dulbecco's modified Eagle's medium with 4 mM L-glutamine and 4.5 g/L glucose), U87-MG (MEM+Earle's BSS). […] Background absorbance was established by wells containing medium but no cells. […]
# MIA PaCa-2 cells = assay: MTT proliferation assay, pancreatic carcinoma MIA PaCa-2; settings: Homo sapiens, MIA PaCa-2, 120 h, Tumor Cell: Pancreatic (MIA PaCa-2), concentrations tested in microM
# Text: as §1, §2
# A549 cells = assay: MTT proliferation assay, non-small cell lung carcinoma A549; settings: Homo sapiens, A549, 120 h, Tumor Cell: NSCLC (A549), concentrations tested in microM
# Text: as §1, §2
# U-87 MG cells = assay: MTT proliferation assay, glioblastoma U-87 MG; settings: Homo sapiens, Tumor Cell: Glioblastoma (U-87 MG), 120 hours, concentrations tested in microM
# Text: as §1, §2
# LoVo cells = assay: MTT proliferation assay, colon adenocarcinoma LoVo; settings: Homo sapiens, Tumor Cell: Colon (LoVo), 120 hours, concentrations tested in microM
# Text: as §1, §2
structure (smiles),measurement,setting,value
CC(C)OC(=O)C(C)(C)Oc1ccc(C(=O)c2ccc(Cl)cc2)cc1 [Fenofibrate],pIC50,PC-3 cells,4.46
same,pIC50,MIA PaCa-2 cells,5.28
same,pIC50,A549 cells,4.38
same,pIC50,U-87 MG cells,4.40
same,pIC50,LoVo cells,4.72
